# Source: the supplement of paper PMC3334620
# Over roughly 33,000 sequences, “E-score (-0.5 to 0.5)” has its median near -8e-05; the highest 2% begin near 0.23. Some of the results follow.
# Biological target: T1, Nrg2 (UniProt P38082)
# T1 sequence: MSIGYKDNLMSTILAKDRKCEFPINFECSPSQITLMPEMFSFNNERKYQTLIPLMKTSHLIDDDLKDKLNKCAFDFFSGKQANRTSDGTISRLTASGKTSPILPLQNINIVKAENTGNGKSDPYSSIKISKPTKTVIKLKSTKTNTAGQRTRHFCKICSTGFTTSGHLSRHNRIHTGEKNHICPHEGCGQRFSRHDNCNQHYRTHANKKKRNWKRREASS
# Assay: PBM E-score (8-mer binding enrichment) (E-score (-0.5 to 0.5)); higher = stronger / more preferred TF binding
# Conditions: protein concentration: 100 nM; construct: GST-full length
# Method in brief: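 Using PURExpress in vitro transcription/translation, GST-tagged yeast transcription factors were made in full-length or DNA-binding-domain form. These were applied at about 100-200 nM to double-stranded universal all-10-mer Agilent arrays, and bound protein was detected with fluorescent anti-GST. Scans were normalised with masliner before the Universal PBM Analysis Suite assigned E-scores to ungapped eight-base words pooled with their reverse complements.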
row,Sequence,PBM E-score
1,CGATTTCA,-0.059
2,CAACTATG,0.137
3,CCCTTGAC,-0.00413
4,CTCGTTTA,0.0281
5,CGTTTCCA,-0.133
6,ATTTCTCA,0.0394
7,TCAAATAA,0.0394
8,AGGGTATA,0.219
9,ATGGGTTC,-0.0692
10,ACTGTAGA,0.122
11,CAGGTCGC,0.00834
12,CGGGGTAC,-0.17
13,CTCCTTTC,-0.117
14,CAGCGTAC,-0.0506
15,AAGCTTTA,0.0329
16,ACACTTCC,0.0362
17,ACCGTGTC,-0.118
18,CCAAGGCA,-0.0373
19,GACCCAAC,0.0918
20,CTCCGGCA,-0.0118
21,GGGTCGAC,0.11
22,AATGTCGC,0.103
23,ATCACTTG,0.00546
24,GCGGGGGA,-0.182
25,GGTCGCAA,0.00495

row,Sequence,PBM E-score
1,CCATCACC,-0.00416
2,ATATAGGA,0.0162
3,GCCTATCA,0.096
4,ATGTGATC,0.0705
5,CGTATAAA,0.097
6,CTACGCGC,0.16
7,GCGATTGA,0.0715
8,TAAGGCCA,-0.128
9,GCGGTGAC,-0.0442
10,TCTGCGAA,-0.237
11,ACAGTTCT,0.0391
12,CGAGCAAG,-0.0684
13,ACGTGTCA,-0.0606
14,CAACGCCG,-0.0413
15,CCACAAGC,-0.208
16,GACTCAGC,-0.114
17,ACTCAGTA,0.166
18,AAGGCACC,-0.0385
19,CTACTCAA,0.126
20,CCGTGTAA,-0.0996
21,CAGCTTTC,-0.114
22,GCGGGGCA,-0.0234
23,AACAGAAG,-0.093
24,GACGACCC,0.14
25,CTGCTCTC,-0.0281

row,Sequence,PBM E-score
1,GCATCTAC,0.108
2,CGCCGTAC,0.00964
3,ACTCCGAG,0.04
4,GAGGGTAA,-0.125
5,ACCTCGGG,0.00828
6,ACGATTCT,0.0802
7,GTTTTATA,0.0933
8,ACTCAATG,-0.0524
9,GACAGATC,0.19
10,ACAAAACC,0.246
11,CATTTATC,0.0481
12,AACTCCCT,-0.101
13,ACGTGAGT,-0.0537
14,ACTGGGAA,0.0642
15,GAAGTATC,0.209
16,AAGTTATG,0.159
17,ATCTACGA,-0.192
18,CAACCAGG,-0.0897
19,CCGGTAGA,-0.083
20,AATCGCTC,-0.17
21,ACCTATAT,0.236
22,AGAGCACA,0.0882
23,TACGACCA,-0.0683
24,CATTTTAA,0.147
25,CCGCGATA,0.117

row,Sequence,PBM E-score
1,AGCTCCAG,-0.0523
2,GCCGGTTA,-0.136
3,GCACGAGA,0.0155
4,CACGTGAC,-0.137
5,CAATTAGA,0.145
6,GCTTTTGA,-0.175
7,CATCATGG,0.0628
8,AATAATCA,0.143
9,CTCTTCAC,0.0494
10,CCATCGGC,-0.086
11,AGAGAACT,-0.141
12,ACAGCGTG,-0.0786
13,ACTTGGTG,0.0161
14,CCGGTGTC,-0.204
15,GACTTCAA,-0.118
16,CGCACGAA,0.168
17,CAAGTCGA,-0.124
18,AGCCCGAA,-0.0291
19,AAGAGCAG,-0.0544
20,GATCGTCA,-0.121
21,GGTTTATA,0.0316
22,ACTCGGAT,0.0729
23,GCACAACA,0.107
24,TCGCTCCA,-0.0731
25,AAGCTATG,-0.129

row,Sequence,PBM E-score
1,GGTCGCTA,-0.105
2,AGGACGCA,0.181
3,CCCCGCGG,0.0578
4,ACCACTGC,-0.131
5,GTAGATAA,0.0965
6,TCCTCCGA,-0.284
7,ATATCAGA,0.035
8,TCGCCGAA,-0.124
9,CGTGTTTC,-0.179
10,TAAGTCCA,-0.00502
11,ACACAAGT,0.0773
12,GACGCCCC,-0.0205
13,CCAGATGC,-0.215
14,ATTCTCTA,0.0337
15,CCAAAGAC,-0.119
16,ATAACCAG,0.139
17,ATCGCCAG,-0.0475
18,AATGAGAT,0.171
19,AAGCGTAG,-0.0861
20,GCTAGACC,-0.264
21,ATGCAGGA,-0.0413
22,GTTACGTA,-0.287
23,CATAGAAA,0.175
24,AACGATGT,0.125
25,CAGGCATG,0.0164

row,Sequence,PBM E-score
1,GCTCTGGA,0.186
2,AGCTCCCT,-0.228
3,AGCGATCC,-0.129
4,CAGCGACG,-0.0524
5,AGGAGACG,-0.185
6,GCGGGATA,0.0702
7,CGCAAGAC,-0.0982
8,ATACATAA,0.0727
9,GCCATATA,0.102
10,CCACACAG,0.133
11,GGTAAATA,-0.0476
12,CCAATTCA,0.147
13,CTTAAGTA,0.0538
14,CATGTGCA,-0.227
15,AGCATGGC,-0.114
16,AGTTACCA,0.138
17,CCTGTACA,0.0705
18,ACGGAGGG,0.00822
19,CAATATTC,0.0479
20,CTCATTTA,0.0983
21,ATGCGGGG,-0.167
22,CCAGGAAC,-0.0968
23,CAGGATAA,0.0945
24,AGGTCCAA,-0.0549
25,AACGGATT,0.148

# Reformatted: entries from further up
row	Sequence	PBM E-score
15	CCAAAGAC	-0.119
16	ATAACCAG	0.139
17	ATCGCCAG	-0.0475
18	AATGAGAT	0.171
19	AAGCGTAG	-0.0861
20	GCTAGACC	-0.264
21	ATGCAGGA	-0.0413
22	GTTACGTA	-0.287
23	CATAGAAA	0.175
24	AACGATGT	0.125
25	CAGGCATG	0.0164
1	GCTCTGGA	0.186
2	AGCTCCCT	-0.228
3	AGCGATCC	-0.129
4	CAGCGACG	-0.0524
5	AGGAGACG	-0.185
6	GCGGGATA	0.0702
7	CGCAAGAC	-0.0982
8	ATACATAA	0.0727
9	GCCATATA	0.102
10	CCACACAG	0.133
11	GGTAAATA	-0.0476
12	CCAATTCA	0.147
13	CTTAAGTA	0.0538
14	CATGTGCA	-0.227
15	AGCATGGC	-0.114
16	AGTTACCA	0.138
17	CCTGTACA	0.0705
18	ACGGAGGG	0.00822
19	CAATATTC	0.0479
20	CTCATTTA	0.0983
21	ATGCGGGG	-0.167
22	CCAGGAAC	-0.0968

# The results go on.

row,Sequence,PBM E-score
1,GCAATGGC,-0.17
2,TCAAGGCA,-0.129
3,CCTCGGAG,-0.1
4,AGCCAGAA,-0.0741
5,AACTGAAG,0.173
6,AGACAGTC,-0.193
7,ACGGTGCA,-0.143
8,ACTGGGCG,-0.228
9,CTCGGGAC,-0.0991
10,TACTGTGA,0.121
11,GGGACACC,-0.00517
12,ACGTTGTA,-0.0794
13,CAAGTGCC,-0.083
14,CCGGACCG,-0.116
15,TACAAAGA,0.0477
16,ACCGATAG,0.0925
17,AGCAATCC,-0.18
18,CCGGCGGA,0.104
19,CATCAGAG,0.0544
20,GCTTGAAC,0.113
21,GATGCGGA,-0.141
22,CGTCCGCC,-0.116
